Experimental data as given in PubChem BioAssay AID1487 (National Center for Advancing Translational Sciences (NCATS), 2009).
Where “and” joins values, the source holds several entries; their conditions need not be identical. Identical values can stand only once. This is one part of the list. Further columns of the screen follow, without active or inactive calls. The list favours compounds with an active or inconclusive main result. Potencies come from curve fits of mixed quality, noted in brackets.

Test: qHTS Assay for Modulators of Lamin A Splicing
Details: HeLa LMNA splicing GFP/RFP minigene ratio, 48 h
In short: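 Read-out is the ratio of GFP to DsRed2 object intensity, acquired by 488 nm laser-scanning cytometry on HeLa lamin A-EGFP minigene reporter cells. Compound incubation 48 hrs at 37 °C in Opti-MEM with 2% FBS; DMSO 0.5% final.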

[1] = measured here: GFP splicing reporter channel
[2] = measured here: RFP viability control channel

| Structure (SMILES) | AC50 [1] | AC50 [2] |
| --- | --- | --- |
| CCOc1ccccc1NC(=O)Cn1c(=O)sc2ccccc21 | 0.501 µM [rising, full curve] | – |
| CCCCN(CCCC)C1=Nc2ccccc2N/C1=C(/C#N)C(=O)OCC | 7.08 µM [rising, partial curve] | – |
| CCCNC(C)C(=O)Nc1ccccc1C (stereo not drawn) | – | 25.1 µM [falling, partial curve] |
| CC[n+]1c(/C=C2\Sc3ccccc3N2C)ccc2cccc(C)c21 | 5.62 µM [rising, single point] | – |
| CC(=O)N1CCc2c(sc3c2c(=O)n(-c2ccccc2)c(=O)n3CC(=O)Nc2cc(C)cc(C)c2)C1 | 6.31 µM [falling, partial curve] | – |
| N#CC(c1ccccc1)c1ccc(C(=O)c2ccc(F)cc2)cc1 (stereo not drawn) | – | 20 µM [rising, single point] |
| COc1ccc(CN(CCN(C)C)c2ccccn2)cc1 | – | 1.12 nM [rising, full curve, poor fit] and 79.4 nM [rising, full curve, poor fit] |
| Cc1ccc(-n2nc(C(=O)N3CCN(c4ccccc4F)CC3)c(=O)n(C)c2=O)cc1 | 0.0126 µM [falling, full curve, poor fit] | – |
| Nc1ncn([C@@H]2O[C@H](CO)[C@@H](O)[C@H]2O)c(=O)n1 | 2.51 µM [falling, full curve] | 1.58 µM [falling, full curve] and 5.62 µM [falling, full curve] |
| CC(=O)N1C(=S)NC(=O)/C1=C1/C(=O)N(CC(=O)Nc2cccc(C)c2)c2ccccc21 | – | 0.282 µM [rising, full curve, poor fit] |
| Cc1cc(C(F)(F)F)n(-c2nc(C(=O)Nc3ccccc3Oc3ccccc3)cs2)n1 | – | 0.282 µM [falling, single point] |
| Clc1ccccc1CSc1nnc(-c2ccccn2)n1Cc1ccco1 | 11.2 µM [rising, partial curve] | 10 µM [rising, partial curve] |
| Nc1ccc(N2CCN(C(=O)c3cccs3)CC2)cc1 | 10 µM [falling, partial curve] | – |
| CCOc1ccc(CNC(=O)CCc2c(C)nn(-c3ccc(N4CCCCC4)nn3)c2C)cc1 | – | 2.24 µM [falling, partial curve] |
| Cc1nc(N)sc1-c1csc(NCc2ccccc2)n1 | – | 0.178 µM [falling, full curve, poor fit] |
| Cn1c2c(c(O)c(-c3ccccc3)c1=O)C(=O)CC(C)(C)C2 | – | 3.16 µM [rising, full curve, poor fit] |
| N#CCCN1CCN(S(=O)(=O)c2ccc(S(=O)(=O)NC3CCCCC3)cc2)CC1 | 0.282 µM [falling, full curve, poor fit] | – |
| Cc1cc(/C=C2\SC(=Nc3ccc(F)cc3)NC2=O)c(C)n1-c1ccc(S(N)(=O)=O)cc1 | – | 3.55 µM [rising, single point] |
| O=S(=O)(NCCc1csc(-c2ccc(C(F)(F)F)cc2)n1)c1ccc2c(c1)OCCO2 | 12.6 µM [rising, partial curve] | 12.6 µM [rising, partial curve] |

| Structure (SMILES) | AC50 [1] | AC50 [2] |
| --- | --- | --- |
| [O-]/C(=C(\C(=S)Nc1ccc(Cl)cc1)[n+]1ccccc1)c1ccc(OC(F)F)cc1 | 22.4 µM [falling, single point] | 15.8 µM [falling, single point] |
| Cc1cc(Nc2cccc(Cl)n2)n(-c2ccccc2)n1 | – | 35.5 µM [rising, single point] |
| Cc1ccc(-c2nnc(SCC(=O)NC3CCCc4ccccc43)n2N)cc1 (stereo not drawn) | 11.2 µM [rising, partial curve] | 25.1 µM [rising, single point] |
| COc1ccc(CCNC(=O)/C(C#N)=C/c2cccc(OCc3ccccc3)c2)cc1OC | 17.8 µM [rising, single point] | 22.4 µM [rising, single point] |
| CCn1nnnc1SCC(=O)N(C1CCCCC1)C1CCCCC1 | 7.08 µM [rising, partial curve] | 5.62 µM [rising, full curve] |
| Cc1[nH]c2ccc(-c3n[nH]c(=S)n3Cc3ccccc3)cc2c1C | – | 35.5 µM [rising, single point] |
| CCOc1ccc(C(=O)NC(=S)NC2CCCC2)cc1[N+](=O)[O-] | 14.1 µM [rising, partial curve] | 31.6 µM [rising, single point] |
| O=C(c1ccccc1)N1CCN(Cc2ccccc2Br)CC1 | – | 3.16 µM [rising, full curve] |
| O=C(CN(C(=O)CSc1nnc(COc2ccccc2)o1)c1ccc(F)cc1)NC1CCCC1 | – | 15.8 µM [rising, single point] |
| Cc1cccc(-c2n[nH]c(=S)n2/N=C/c2ccc(C)o2)c1 | 22.4 µM [rising, single point] | – |
| Cc1cccc(N=N/C(=C\O)C(=O)c2ccc(Br)cc2)c1 | 35.5 µM [falling, single point] | 5.62 µM [falling, partial curve] |
| Cc1cccc(NC(=O)COc2ccc(Br)cc2C)n1 | 15.8 µM [rising, single point] | 17.8 µM [rising, single point] |
| CCSC(=N)N | 0.00447 µM [falling, full curve, poor fit] | – |
| O=C(CCc1ccc(S(=O)(=O)N2CCOCC2)cc1)Nc1ccc2ccccc2c1 | – | 25.1 µM [rising, single point] |
| Cc1ccc(-n2c(=O)c3ccccc3n(CC(=O)C(C)(C)C)c2=O)cc1 | 0.794 µM [rising, single point] | – |
| O=C(Nc1cccc([N+](=O)[O-])c1)c1[nH]ncc1Cl | 14.1 µM [rising, partial curve] | 14.1 µM [rising, single point] |
| COc1ccc(CCNC(=O)c2cnc3scc(C)n3c2=O)cc1OC | – | 0.708 µM [rising, full curve] |
| CCc1ccc(-c2cc(C(=O)N/N=C/c3c[nH]c4ccccc34)[nH]n2)cc1 | – | 25.1 µM [rising, single point] |
